Measurements published in the supplement of paper PMC10849652.
The other results are listed elsewhere or left out.

Chains of the proteins cited; added tags and fusions are not shown. Lines headed by an entry give the natural chain unless they say otherwise; changes in a name come on top.
UniProt O95273: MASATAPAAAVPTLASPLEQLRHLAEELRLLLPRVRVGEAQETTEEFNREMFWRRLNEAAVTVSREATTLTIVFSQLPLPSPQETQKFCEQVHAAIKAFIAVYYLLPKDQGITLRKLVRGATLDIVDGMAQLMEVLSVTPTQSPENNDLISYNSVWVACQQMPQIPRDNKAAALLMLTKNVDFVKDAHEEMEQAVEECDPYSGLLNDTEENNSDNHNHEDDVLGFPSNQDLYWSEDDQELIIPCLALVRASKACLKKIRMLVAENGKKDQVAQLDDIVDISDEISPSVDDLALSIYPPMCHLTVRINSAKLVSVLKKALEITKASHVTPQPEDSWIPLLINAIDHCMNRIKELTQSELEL
UniProt Q8IX12: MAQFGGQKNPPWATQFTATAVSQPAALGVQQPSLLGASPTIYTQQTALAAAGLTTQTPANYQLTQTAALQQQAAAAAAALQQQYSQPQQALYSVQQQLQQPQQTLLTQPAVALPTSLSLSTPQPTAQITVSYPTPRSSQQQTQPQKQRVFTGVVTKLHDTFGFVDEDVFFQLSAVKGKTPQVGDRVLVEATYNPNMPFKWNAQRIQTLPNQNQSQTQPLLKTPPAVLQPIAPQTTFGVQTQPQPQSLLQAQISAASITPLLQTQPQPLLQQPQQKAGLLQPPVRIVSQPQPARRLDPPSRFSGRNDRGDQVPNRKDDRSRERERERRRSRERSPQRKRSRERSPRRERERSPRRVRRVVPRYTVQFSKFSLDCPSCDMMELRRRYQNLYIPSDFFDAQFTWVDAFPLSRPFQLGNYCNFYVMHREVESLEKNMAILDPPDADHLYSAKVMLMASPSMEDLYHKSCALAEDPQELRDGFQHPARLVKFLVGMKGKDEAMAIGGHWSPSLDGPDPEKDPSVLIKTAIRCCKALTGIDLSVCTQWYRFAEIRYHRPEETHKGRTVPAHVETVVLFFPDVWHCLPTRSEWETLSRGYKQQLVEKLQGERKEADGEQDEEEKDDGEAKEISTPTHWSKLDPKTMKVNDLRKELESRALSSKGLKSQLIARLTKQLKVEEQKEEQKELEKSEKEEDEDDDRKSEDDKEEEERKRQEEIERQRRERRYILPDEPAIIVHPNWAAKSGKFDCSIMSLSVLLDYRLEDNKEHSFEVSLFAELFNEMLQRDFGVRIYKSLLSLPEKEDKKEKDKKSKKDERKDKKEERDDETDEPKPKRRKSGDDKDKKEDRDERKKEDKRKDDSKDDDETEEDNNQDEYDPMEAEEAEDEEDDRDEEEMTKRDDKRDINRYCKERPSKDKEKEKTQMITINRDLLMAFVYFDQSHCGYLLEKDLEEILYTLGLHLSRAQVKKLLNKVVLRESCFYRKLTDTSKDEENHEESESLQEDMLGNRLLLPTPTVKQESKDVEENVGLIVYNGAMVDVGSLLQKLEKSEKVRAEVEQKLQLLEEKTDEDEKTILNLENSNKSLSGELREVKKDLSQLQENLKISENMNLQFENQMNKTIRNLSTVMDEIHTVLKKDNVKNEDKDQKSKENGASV
UniProt Q92851: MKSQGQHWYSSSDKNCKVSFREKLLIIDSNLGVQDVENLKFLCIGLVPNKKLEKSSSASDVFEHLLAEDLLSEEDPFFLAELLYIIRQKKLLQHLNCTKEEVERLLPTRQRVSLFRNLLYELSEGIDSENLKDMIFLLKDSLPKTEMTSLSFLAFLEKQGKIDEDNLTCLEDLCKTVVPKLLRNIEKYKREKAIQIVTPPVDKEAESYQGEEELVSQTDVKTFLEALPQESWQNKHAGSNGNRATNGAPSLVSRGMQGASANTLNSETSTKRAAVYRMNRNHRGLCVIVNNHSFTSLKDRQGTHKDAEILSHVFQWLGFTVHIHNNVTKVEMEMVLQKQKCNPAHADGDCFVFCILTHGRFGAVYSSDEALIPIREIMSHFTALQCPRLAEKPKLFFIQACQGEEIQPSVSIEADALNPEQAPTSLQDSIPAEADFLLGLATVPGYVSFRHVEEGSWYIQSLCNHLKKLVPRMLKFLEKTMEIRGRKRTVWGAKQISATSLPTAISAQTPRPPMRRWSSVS
UniProt O14618: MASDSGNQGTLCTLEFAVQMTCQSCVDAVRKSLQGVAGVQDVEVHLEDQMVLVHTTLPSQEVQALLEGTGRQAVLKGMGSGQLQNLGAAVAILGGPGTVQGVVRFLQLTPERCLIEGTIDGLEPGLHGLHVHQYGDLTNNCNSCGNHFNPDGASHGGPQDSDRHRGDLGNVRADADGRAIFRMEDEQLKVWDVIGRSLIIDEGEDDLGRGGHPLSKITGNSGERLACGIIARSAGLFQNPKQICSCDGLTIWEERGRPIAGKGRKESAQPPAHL
UniProt A6NHX0: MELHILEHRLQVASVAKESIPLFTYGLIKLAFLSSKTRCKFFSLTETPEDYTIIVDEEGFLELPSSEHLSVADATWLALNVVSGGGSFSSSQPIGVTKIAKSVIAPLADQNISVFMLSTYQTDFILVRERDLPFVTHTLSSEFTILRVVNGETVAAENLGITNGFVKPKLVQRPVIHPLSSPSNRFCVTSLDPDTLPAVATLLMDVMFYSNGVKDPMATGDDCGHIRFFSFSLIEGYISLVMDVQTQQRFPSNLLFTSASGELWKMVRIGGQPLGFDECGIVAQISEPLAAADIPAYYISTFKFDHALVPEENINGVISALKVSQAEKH
UniProt P16152: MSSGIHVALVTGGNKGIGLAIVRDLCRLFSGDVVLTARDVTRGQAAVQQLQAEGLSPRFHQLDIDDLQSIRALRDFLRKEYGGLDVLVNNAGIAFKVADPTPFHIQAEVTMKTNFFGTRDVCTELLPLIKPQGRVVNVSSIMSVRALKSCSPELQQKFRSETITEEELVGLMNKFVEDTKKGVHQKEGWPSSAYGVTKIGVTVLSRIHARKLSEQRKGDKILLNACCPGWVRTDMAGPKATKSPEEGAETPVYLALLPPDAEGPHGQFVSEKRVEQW
UniProt O95810: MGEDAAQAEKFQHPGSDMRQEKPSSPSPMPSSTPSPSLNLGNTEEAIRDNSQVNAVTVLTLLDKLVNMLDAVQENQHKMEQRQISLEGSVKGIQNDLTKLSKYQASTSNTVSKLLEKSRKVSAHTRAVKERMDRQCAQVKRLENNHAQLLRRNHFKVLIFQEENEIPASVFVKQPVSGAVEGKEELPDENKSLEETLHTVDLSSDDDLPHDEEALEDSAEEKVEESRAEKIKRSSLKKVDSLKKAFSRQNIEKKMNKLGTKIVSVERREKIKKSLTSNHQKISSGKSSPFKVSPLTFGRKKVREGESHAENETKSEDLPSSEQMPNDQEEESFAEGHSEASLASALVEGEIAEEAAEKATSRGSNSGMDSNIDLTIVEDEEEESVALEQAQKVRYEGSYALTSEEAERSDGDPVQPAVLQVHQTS
UniProt P83916, whole entry, looked up: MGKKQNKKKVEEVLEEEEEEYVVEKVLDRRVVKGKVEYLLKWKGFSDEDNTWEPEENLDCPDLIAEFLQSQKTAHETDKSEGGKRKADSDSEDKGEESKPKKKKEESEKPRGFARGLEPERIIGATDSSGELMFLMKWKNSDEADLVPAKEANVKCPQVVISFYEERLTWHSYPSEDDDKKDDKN
UniProt P19397: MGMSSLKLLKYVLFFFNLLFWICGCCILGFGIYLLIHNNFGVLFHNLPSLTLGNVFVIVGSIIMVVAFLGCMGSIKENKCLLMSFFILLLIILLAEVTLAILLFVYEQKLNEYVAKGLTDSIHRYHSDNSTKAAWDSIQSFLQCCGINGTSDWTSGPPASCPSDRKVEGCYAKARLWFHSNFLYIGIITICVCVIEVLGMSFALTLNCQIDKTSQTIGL
UniProt Q8N7R7: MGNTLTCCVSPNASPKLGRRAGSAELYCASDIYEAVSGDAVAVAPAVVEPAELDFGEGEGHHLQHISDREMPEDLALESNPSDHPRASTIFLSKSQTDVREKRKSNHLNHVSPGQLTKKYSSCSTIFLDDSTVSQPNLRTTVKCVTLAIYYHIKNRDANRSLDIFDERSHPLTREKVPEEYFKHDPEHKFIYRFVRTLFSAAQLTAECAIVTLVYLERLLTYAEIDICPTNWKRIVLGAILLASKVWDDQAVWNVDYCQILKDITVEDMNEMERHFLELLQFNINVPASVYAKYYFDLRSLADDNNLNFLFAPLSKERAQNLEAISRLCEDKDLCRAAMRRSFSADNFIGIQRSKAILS
UniProt Q9Y2V2: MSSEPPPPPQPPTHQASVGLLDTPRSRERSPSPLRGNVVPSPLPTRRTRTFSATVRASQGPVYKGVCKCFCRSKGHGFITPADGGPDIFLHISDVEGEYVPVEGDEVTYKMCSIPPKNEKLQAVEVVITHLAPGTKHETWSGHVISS
UniProt Q8N163, whole entry, looked up: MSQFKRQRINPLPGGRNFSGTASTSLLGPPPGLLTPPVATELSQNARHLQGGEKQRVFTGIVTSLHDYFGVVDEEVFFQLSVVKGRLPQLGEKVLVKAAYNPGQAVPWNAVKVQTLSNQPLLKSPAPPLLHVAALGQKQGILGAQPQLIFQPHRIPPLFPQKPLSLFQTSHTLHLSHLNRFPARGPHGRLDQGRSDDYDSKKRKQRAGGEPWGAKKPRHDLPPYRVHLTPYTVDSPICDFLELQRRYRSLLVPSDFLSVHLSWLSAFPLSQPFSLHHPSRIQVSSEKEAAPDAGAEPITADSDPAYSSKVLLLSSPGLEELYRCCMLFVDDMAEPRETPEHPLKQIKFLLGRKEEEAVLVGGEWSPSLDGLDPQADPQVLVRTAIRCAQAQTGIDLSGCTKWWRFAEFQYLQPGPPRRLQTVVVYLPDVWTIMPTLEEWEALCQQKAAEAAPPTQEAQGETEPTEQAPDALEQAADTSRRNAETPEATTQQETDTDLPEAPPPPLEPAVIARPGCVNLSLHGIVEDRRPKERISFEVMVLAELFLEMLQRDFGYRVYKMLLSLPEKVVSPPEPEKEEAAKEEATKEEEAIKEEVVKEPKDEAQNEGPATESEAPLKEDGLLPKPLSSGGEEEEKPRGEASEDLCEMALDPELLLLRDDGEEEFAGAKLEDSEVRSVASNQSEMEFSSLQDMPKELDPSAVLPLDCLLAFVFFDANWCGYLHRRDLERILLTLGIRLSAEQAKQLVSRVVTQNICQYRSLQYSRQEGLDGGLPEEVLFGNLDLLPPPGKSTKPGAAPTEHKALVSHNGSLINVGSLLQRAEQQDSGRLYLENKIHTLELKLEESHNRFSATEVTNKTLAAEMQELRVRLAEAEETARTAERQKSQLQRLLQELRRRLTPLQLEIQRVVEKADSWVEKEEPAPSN
UniProt Q6P1N0: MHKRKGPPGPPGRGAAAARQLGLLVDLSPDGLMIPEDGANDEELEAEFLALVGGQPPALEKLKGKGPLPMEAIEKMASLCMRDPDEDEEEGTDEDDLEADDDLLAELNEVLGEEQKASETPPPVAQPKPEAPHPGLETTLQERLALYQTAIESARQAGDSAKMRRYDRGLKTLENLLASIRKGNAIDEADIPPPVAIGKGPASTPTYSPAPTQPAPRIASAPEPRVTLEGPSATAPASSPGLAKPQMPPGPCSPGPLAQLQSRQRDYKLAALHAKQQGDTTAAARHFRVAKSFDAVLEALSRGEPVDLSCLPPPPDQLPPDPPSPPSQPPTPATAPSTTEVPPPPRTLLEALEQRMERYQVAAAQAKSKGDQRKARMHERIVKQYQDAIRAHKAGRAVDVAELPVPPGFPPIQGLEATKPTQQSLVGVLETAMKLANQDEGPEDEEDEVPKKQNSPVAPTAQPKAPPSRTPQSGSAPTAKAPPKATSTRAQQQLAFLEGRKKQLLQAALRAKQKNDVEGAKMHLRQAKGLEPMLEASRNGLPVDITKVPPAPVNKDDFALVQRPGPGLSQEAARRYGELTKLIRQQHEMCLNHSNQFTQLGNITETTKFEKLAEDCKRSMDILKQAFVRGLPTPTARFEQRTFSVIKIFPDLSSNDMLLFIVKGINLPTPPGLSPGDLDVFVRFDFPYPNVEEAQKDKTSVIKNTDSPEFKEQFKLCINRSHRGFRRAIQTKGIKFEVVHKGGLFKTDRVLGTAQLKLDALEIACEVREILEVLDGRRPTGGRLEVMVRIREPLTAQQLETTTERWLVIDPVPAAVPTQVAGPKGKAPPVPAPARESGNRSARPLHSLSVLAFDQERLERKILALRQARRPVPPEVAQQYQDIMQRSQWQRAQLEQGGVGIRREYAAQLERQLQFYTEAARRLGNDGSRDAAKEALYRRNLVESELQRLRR
UniProt O95400: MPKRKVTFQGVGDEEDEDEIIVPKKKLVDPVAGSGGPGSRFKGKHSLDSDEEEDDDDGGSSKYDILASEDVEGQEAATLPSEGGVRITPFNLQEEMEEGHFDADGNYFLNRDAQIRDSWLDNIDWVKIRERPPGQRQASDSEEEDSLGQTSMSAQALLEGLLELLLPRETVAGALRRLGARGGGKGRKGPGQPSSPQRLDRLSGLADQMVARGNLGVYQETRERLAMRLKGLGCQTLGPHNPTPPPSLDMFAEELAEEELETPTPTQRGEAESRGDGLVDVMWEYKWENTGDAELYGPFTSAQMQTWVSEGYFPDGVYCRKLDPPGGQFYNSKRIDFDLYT

compound: O=C(O)c1ccc2c(c1)nc(Nc1cccc(Cl)c1)c1ccncc12 [silmitasertib]; assay: log2 fold change, soluble protein after heating vs DMSO (PISA); higher = thermal stabilisation; K562 lysate, 10 uM; active = over 0.2 and 3.5 SD of the protein, either way, in both replicates (recomputed)
Method in brief: (§1)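 Dounce homogenisation of K562 pellets in PBS pH 7.4 with 1 mM MgCl2 produced a crude extract, used at 1 mg/mL protein. Exposure to 10 μM compound lasted 30 min, and aliquots were then heated for 3 min across 48°C-58°C, pooled and brought to 0.5% NP-40 at 4°C. The supernatant after 21,000xg for 90 min was quantified by TMTpro 16plex LC-MS/MS with channel sums equalised. Duplicate values are given as log-two fold change in thermal stability relative to solvent controls.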

log2 fold change, inactive:
CASP2 (UniProt P42575) -0.038
CCNC (UniProt P24863) 0.338
CCDC51 (UniProt Q96ER9) 0.011
CCNDBP1 (UniProt O95273) 0.014
CCAR1 (UniProt Q8IX12) -0.018
CARS isoform 3 (UniProt P49589) 0.018
CCDC152 (UniProt Q4G0S7) 0.051
CASP10 isoform 4 (UniProt Q92851) 0.011
CCDC102A (UniProt Q96A19) -0.139
CD55 isoform 7 (UniProt P08174) -0.04
CCS (UniProt O14618) 0.018
CBR4 (UniProt Q8N4T8) -0.073
CCDC47 (UniProt Q96A33) 0.026
CASTOR2 (UniProt A6NHX0) -0.034
CBLL1 (UniProt Q75N03) -0.125
CCNB2 (UniProt O95067) -0.079
CBR1 (UniProt P16152) -0.024
CCT5 (UniProt P48643) 0.007
CAVIN2 (UniProt O95810) -0.027
CBX1 (UniProt P83916) -0.046
CASP3 (UniProt P42574) -0.02
CD53 (UniProt P19397) -0.001
CCNYL1 (UniProt Q8N7R7) 0.079
CD47 (UniProt Q08722) -0.036
CARHSP1 (UniProt Q9Y2V2) -0.006
CCAR2 (UniProt Q8N163) 0.002
CCDC88A (UniProt Q3V6T2) -0.007
CD63 (UniProt P08962) -0.039
CBL (UniProt P22681) -0.005
CC2D1A (UniProt Q6P1N0) 0.038
CAT (UniProt P04040) -0.017
CD2BP2 (UniProt O95400) -0.027
CASP6 (UniProt P55212) 0.045
CCDC174 (UniProt Q6PII3) -0.057
CCDC88C (UniProt Q9P219) -0.135
CD81 (UniProt P60033) 0.007
CD80 (UniProt P33681) -0.067

compound: O=C1NC(=O)C(c2cnc3ccccn23)=C1c1cn2c3c(cc(F)cc13)CN(C(=O)N1CCCCC1)CC2; assay: as above
Method in brief: as §1

log2 fold change, inactive:
CASP2 (UniProt P42575) -0.015
CCNC (UniProt P24863) -0.092
CCDC51 (UniProt Q96ER9) 0.015
CCNDBP1 (UniProt O95273) 0.006
CCAR1 (UniProt Q8IX12) -0.009
CARS isoform 3 (UniProt P49589) -0.049
CCDC152 (UniProt Q4G0S7) 0.131
CASP10 isoform 4 (UniProt Q92851) 0.018
CCDC102A (UniProt Q96A19) -0.059
CD55 isoform 7 (UniProt P08174) 0.003
CCS (UniProt O14618) -0.017
CBR4 (UniProt Q8N4T8) 0.018
CCDC47 (UniProt Q96A33) 0.011
CASTOR2 (UniProt A6NHX0) -0.023
CBLL1 (UniProt Q75N03) -0.091
CCNB2 (UniProt O95067) -0.08
CBR1 (UniProt P16152) 0.033
CCT5 (UniProt P48643) -0.019
CAVIN2 (UniProt O95810) 0.002
CBX1 (UniProt P83916) -0.01
CASP3 (UniProt P42574) 0.007
CD53 (UniProt P19397) 0.033
CCNYL1 (UniProt Q8N7R7) 0.019
CD47 (UniProt Q08722) -0.037
CARHSP1 (UniProt Q9Y2V2) 0.056
CCAR2 (UniProt Q8N163) -0.02
CCDC88A (UniProt Q3V6T2) -0.031
CD63 (UniProt P08962) -0.173
CBL (UniProt P22681) 0.014
CC2D1A (UniProt Q6P1N0) 0.013
CAT (UniProt P04040) 0.027
CD2BP2 (UniProt O95400) 0.003
CASP6 (UniProt P55212) -0.018
CCDC174 (UniProt Q6PII3) -0.029
CCDC88C (UniProt Q9P219) -0.041
CD81 (UniProt P60033) 0.043
CD80 (UniProt P33681) -0.066
